Measured data: PubChem BioAssay AID686943 (Drosophila RNAi Screening Center, 2013)

Screen: 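Knockdowns that increase or decrease active ERK after insulin receptor stimulation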 (primary screen)
Cell system: Drosophila S2R+ haemocyte-like cells expressing YFP-tagged ERK (Rolled)
Knock-down reagent: long dsRNA against Drosophila genes
Treatment: insulin stimulation versus unstimulated cells; dose and duration not given
Measured: 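Antibody staining for doubly phosphorylated ERK divided by ERK-YFP signal, as plate z-scores, in insulin-treated and untreated cells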
Direction: replicate 1, z-score of dpERK with insulin: higher = more active ERK per ERK-YFP after insulin
In all, the deposit lists about 23,000 reagents; this is a random part of those that have a named target and a result. 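Extra replicates exist only for a retested subset of genes; insulin dose and duration not given; both raised and lowered dpERK matter.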 Not all columns of the deposit are shown. The record does not give: the amount of reagent, the time to read-out.

replicate 1, z-score of dpERK with insulin, by target gene and reagent
CG34008: DRSC13428 -0.53
ush (u-shaped): DRSC00843 4.87
CG31556 (retired record): DRSC12122 1.3; DRSC22177 0.27
CG8032: DRSC16365 0.31
ATP6AP2 (ATPase H+ transporting accessory protein 2): DRSC16420 1.21
CG3104: DRSC00567 1.3
CtIP (CTBP-interacting protein): DRSC11785 0.74
Spn28Dc (Serpin 28Dc): DRSC03029 -0.66
Ge-1: DRSC02938 1.69
CG3598: DRSC18471 1.61
alphaTub84D (alpha-Tubulin at 84D): DRSC12623 -1.24
CG9135: DRSC03144 0.47
CG13097: DRSC02199 -0.42
CG31224: DRSC15272 -1.31; DRSC16290 0.11
RpL5 (Ribosomal protein L5): DRSC03801 -2.24
CG34168: DRSC01938 0.66
Vha100-2 (Vacuolar H[+] ATPase 100kD subunit 2): DRSC14152 0.56
CG17005: DRSC02556 0.08
wol (wollknaeuel): DRSC03077 -0.01
Slc25A46b: DRSC02888 0.2
Pdp1 (PAR-domain protein 1): DRSC08896 -4.36; DRSC08897 -4.79; DRSC11251 -0.78
CG32313: DRSC21450 0.37
beat-IIIc (beaten path IIIc): DRSC02438 -0.11; DRSC02949 0.1
mahj (mahjong): DRSC04053 -0.4
HtrA2 (HTRA2-related serine protease): DRSC16425 0.16
Psf2 (Partner of Sld Five 2): DRSC00516 3.51
CG5001: DRSC00673 0.92
CG11095: DRSC19375 0.86
Cpr35B (Cuticular protein 35B): DRSC01949 0.63; DRSC22797 -0.09
eIF3h (eukaryotic translation initiation factor 3 subunit h): DRSC01995 -1.18
Der-2 (Derlin-2): DRSC15021 -0.03
Ntf-2r (Nuclear transport factor-2-related): DRSC02019 0.23
CG31221: DRSC14335 -1.28; DRSC16217 0.49
CG32486: DRSC08413 -0.18; DRSC08488 -0.85
pths (porthos): DRSC03171 0.08
CG5062: DRSC18385 0.87
pasha (partner of drosha): DRSC15295 -0.34
tbrd-3: DRSC04295 -0.25
pxb: DRSC13110 1.08; DRSC14996 0.4; DRSC14997 0.5; DRSC22225 0.52
Sgs1 (Salivary gland secretion 1): DRSC00787 0.45; DRSC00848 -0.94
CROT (Carnitine O-octanoyltransferase): DRSC14518 -1; DRSC14519 -0.78
PolrMT (RNA polymerase mitochondrial): DRSC00660 0.04
CG33337: DRSC13632 0.24
GXIVsPLA2: DRSC10243 0.77

Entries above whose target name starts with G or g:
replicate 1, z-score of dpERK with insulin, by target gene and reagent
Ge-1: DRSC02938 1.69
GXIVsPLA2: DRSC10243 0.77
